# Results: PubChem BioAssay AID445 (National Center for Advancing Translational Sciences (NCATS), 2006)
# This is one part of the list. Shown are side measurements of this screen, not its main read-out; they come without a call. The list favours compounds with an active or inconclusive main result. Potencies come from curve fits of mixed quality, noted in brackets. *1 amine or outer side, *2 acyl side, *3 side chain or, on linkers, in order; H or OH if unused. Where a SMILES comes first, the peptide text is derived from it. Bridges are numbered along the chain shown (N, C = ends). Roman numbers before positions name the chains, in order. [ ]: non-standard residue; d: D form. Actinocin(9to1) = Cc1c2oc3c(C)ccc(C(=O)[*:1])c3nc-2c(C(=O)[*:2])c(N)c1=O; aThr = C[C@H](O)[C@H](N)C(=O)O; NMeV = CN[C@H](C(=O)O)C(C)C; Sar = CNCC(=O)O
# Assay: IkB Signaling
# Conditions: ABC-DLBCL IkBa-CBG/CBR dual luciferase ratio (green luciferase fused to IkBa over red control in OCI-Ly3 lymphoma cells), 4 h; measured here: control luc red channel unless noted
# Outline: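 In this assay, an IκBα–CBG68 fusion accumulates when IKK-driven degradation is blocked; native CBR normalizes for cell number. OCI-Ly3 cells were treated 4 h with compound and doxycycline, then green and red light read after Chroma-Glo addition.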
row,Structure (SMILES),AC50
1,O=C(CN1C(=O)CCc2cc(S(=O)(=O)N3CCOCC3)ccc21)Nc1cccc(Cl)c1,"12.6 µM [falling, partial curve]"
2,COc1ccc(NC(=O)Cn2cnc3sc(C)c(S(=O)(=O)N4CCN(C)CC4)c3c2=O)cc1Cl,"10 µM [falling, partial curve]"
3,O=C(Nc1ccccc1)c1cc([N+](=O)[O-])ccc1Cl,"3.98 µM [falling, partial curve]"
4,O=C(Nc1cccc(NC(=O)c2ccc(Br)o2)c1)c1ccccc1,"12.6 µM [falling, partial curve]"
5,COc1cccc(C2c3c(oc4ccc(C)cc4c3=O)C(=O)N2CCCN2CCOCC2)c1OC (stereo not given),"1.58 µM [rising, full curve, poor fit]"
6,COC(=O)C1=C(N)Oc2cc(C)n(Cc3ccco3)c(=O)c2C1c1cccc(Cl)c1 (stereo not given),"31.6 µM [falling, partial curve]"
7,Cc1ccccc1-n1cc(-c2ccccc2)nc1SCC(=O)Nc1ccc(F)cc1,"7.94 µM [falling, partial curve]"
8,CCOC(=O)c1cccc(NC2c3ccccc3C(=O)N2Cc2ccco2)c1 (stereo not given),"20 µM [falling, partial curve]"
9,COc1ccc(C2C(=O)N(C3CCC(C)CC3)CC(=O)N2Cc2ccccc2Cl)cc1OC (stereo not given),"39.8 µM [falling, single point]"
10,COc1ccc(-c2nnc(SCC(=O)Nc3sc4c(c3C#N)CCC4)n2CC2CCCO2)cc1 (stereo not given),"31.6 µM [falling, partial curve]"
11,Cc1noc(Cn2c(=O)c3ccccc3n(CC(=O)Nc3cccc(Cl)c3C)c2=O)n1,"31.6 µM [falling, single point]"
12,COc1cccc(NC(=O)CSc2nc3n[nH]c(C)c3c(=N)n2-c2cccc(OC)c2)c1,"5.01 µM [falling, partial curve]"
13,Cc1cc(C(=O)OCC(=O)Nc2cc(C(F)(F)F)ccc2N2CCOCC2)c(C)o1,"39.8 µM [falling, single point]"
14,C=CCn1c(C)cc(C(=O)CSc2nc3ccccc3o2)c1C,"39.8 µM [falling, single point]"
15,CC(C)c1ccc(OCC(=O)Nc2c(Cl)ccc3nsnc23)cc1,"2 µM [rising, full curve]"
16,O=C(c1cnc(N2CCCCC2)c2ccccc12)N1CCN(c2ccccc2F)CC1,"39.8 µM [falling, single point]"
17,CN(C)c1nc(N)nc(Nc2ccccc2C#N)n1,"3.16 µM [falling, full curve]"
18,Oc1ccccc1NCC(O)Cn1ccc2ccccc21 (stereo not given),"0.501 µM [falling, partial curve]"
19,COc1ccc(CNC(=O)CCc2c(C)nn(-c3ccc(N4CCCCC4)nn3)c2C)c(OC)c1,"31.6 µM [falling, single point]"
20,CCOC(=O)COc1ccc(S(=O)(=O)Nc2ccc3c(c2)OCCO3)cc1,"15.8 µM [falling, partial curve]"

# An excerpt of these results, as tab-separated lines.
row	Structure (SMILES)	AC50
1	O=C(CN1C(=O)CCc2cc(S(=O)(=O)N3CCOCC3)ccc21)Nc1cccc(Cl)c1	12.6 µM [falling, partial curve]
2	COc1ccc(NC(=O)Cn2cnc3sc(C)c(S(=O)(=O)N4CCN(C)CC4)c3c2=O)cc1Cl	10 µM [falling, partial curve]
3	O=C(Nc1ccccc1)c1cc([N+](=O)[O-])ccc1Cl	3.98 µM [falling, partial curve]
4	O=C(Nc1cccc(NC(=O)c2ccc(Br)o2)c1)c1ccccc1	12.6 µM [falling, partial curve]
5	COc1cccc(C2c3c(oc4ccc(C)cc4c3=O)C(=O)N2CCCN2CCOCC2)c1OC (stereo not given)	1.58 µM [rising, full curve, poor fit]
6	COC(=O)C1=C(N)Oc2cc(C)n(Cc3ccco3)c(=O)c2C1c1cccc(Cl)c1 (stereo not given)	31.6 µM [falling, partial curve]
7	Cc1ccccc1-n1cc(-c2ccccc2)nc1SCC(=O)Nc1ccc(F)cc1	7.94 µM [falling, partial curve]
8	CCOC(=O)c1cccc(NC2c3ccccc3C(=O)N2Cc2ccco2)c1 (stereo not given)	20 µM [falling, partial curve]
9	COc1ccc(C2C(=O)N(C3CCC(C)CC3)CC(=O)N2Cc2ccccc2Cl)cc1OC (stereo not given)	39.8 µM [falling, single point]
10	COc1ccc(-c2nnc(SCC(=O)Nc3sc4c(c3C#N)CCC4)n2CC2CCCO2)cc1 (stereo not given)	31.6 µM [falling, partial curve]
11	Cc1noc(Cn2c(=O)c3ccccc3n(CC(=O)Nc3cccc(Cl)c3C)c2=O)n1	31.6 µM [falling, single point]

# (next part)

row,Structure (SMILES),AC50
1,Cc1ccc(-n2ncc(C(=O)NCCCN3CCN(c4cccc(Cl)c4)CC3)c2-n2cccc2)cc1,"15.8 µM [falling, partial curve]"
2,CC(=O)N1CCc2cc(CNS(=O)(=O)c3ccc(Br)s3)ccc21,"39.8 µM [falling, single point]"
3,CC1CCCN(Cc2cn3c(-c4cccc(Br)c4)nnc3s2)C1 (stereo not given),"25.1 µM [falling, partial curve]"
4,Cc1cccc(N2CCN(C(=O)COc3cc(=O)n(C)c4ccccc34)CC2)c1C,"15.8 µM [falling, partial curve]"
5,Cc1cccc(CNC(=O)C2CCN(c3nnc(-n4c(C)ccc4C)s3)CC2)c1,"20 µM [falling, partial curve]"
6,Cc1cc2oc(=O)c(CC(=O)O)c(C)c2c2occ(-c3ccc(F)cc3)c12,"31.6 µM [falling, partial curve, poor fit]"
7,CCN1C(=O)C2(Nc3ccccc3-c3nc4ccccc4n32)c2cc(OC)ccc21 (stereo not given),"15.8 µM [falling, partial curve]"
8,O=C(c1ccc2c(c1)OCCO2)N(Cc1cccnc1)c1nc2c(F)cccc2s1,"15.8 µM [falling, partial curve]"
9,Cc1cccc(-c2noc(CN(C(=O)c3ccccc3Cl)C(C)C)n2)c1,"25.1 µM [falling, single point]"
10,COc1ccc(CCNC(=O)CCCn2c(=O)c3ccccc3n(Cc3ccc(F)cc3Cl)c2=O)cc1OC,"39.8 µM [falling, single point]"
11,Cn1c(C(=O)NCCc2ccccc2)cc2c(=O)n3ccccc3nc21,"25.1 µM [falling, single point]"
12,CCS(=O)(=O)N1CCc2cc(C(=O)Nc3cccc(Cl)c3C)ccc21,"10 µM [falling, partial curve]"
13,COc1ccccc1C(=O)NCCn1cc(SCC(=O)Nc2cc(C)on2)c2ccccc21,"15.8 µM [falling, partial curve]"
14,COc1ccc(Nc2nnc(Cc3ccc(Cl)cc3)c(=O)[nH]2)c(OC)c1,"15.8 µM [falling, partial curve]"
15,Cc1cc(C)c2c(CC(=O)Nc3ccc(Cl)cn3)coc2c1,"7.94 µM [falling, partial curve]"
16,Cc1ccc(CSCc2ccc(C(=O)NCCc3ccc(Cl)cc3)o2)cc1,"25.1 µM [falling, single point]"
17,Cc1cc(C)cc(N2C(=O)CSC23C(=O)N(CC(=O)NCCc2ccccc2)c2ccccc23)c1 (stereo not given),"0.0316 µM [falling, full curve, poor fit]"
18,CCOC(=O)C1=C(CS(=O)(=O)c2ccc(C)cc2)NC(=O)NC1c1ccc(C(C)C)cc1 (stereo not given),"25.1 µM [falling, partial curve]"
19,COc1ccccc1NCc1cccn1-c1nnc(N2CCOCC2)s1,"25.1 µM [falling, single point]"
20,Cc1ccc(C)c(CN2C(=O)CSc3ccc(C(=O)NCc4ccc(F)cc4)cc32)c1,"3.16 µM [falling, single point]"

row,Structure (SMILES),AC50
1,O=C(O)CCNS(=O)(=O)c1ccc2c(c1)Cc1ccccc1-2,"1.26 µM [falling, full curve]"
2,COc1ccc(-n2nc(C(=O)Nc3ccccc3OC)c3c4ccccc4n(C)c3c2=O)cc1Cl,"15.8 µM [rising, partial curve]"
3,CCC(OC(=O)CCc1nc2ccccc2[nH]c1=O)C(=O)c1ccccc1 (stereo not given),"31.6 µM [falling, single point]"
4,Cc1ccc(CSc2nc(-c3cccs3)ccc2C#N)cc1,"7.94 µM [rising, partial curve]"
5,COc1cccc(-c2nn(C)c3sc(C(=O)NCCc4ccc(Cl)cc4)cc23)c1,"5.01 µM [falling, full curve]"
6,CCOc1ccc(NC(=O)NCCCN2CCN(c3ccc(F)cc3)CC2)cc1,"0.631 µM [falling, partial curve]"
7,O=C(O)C1Nc2c(O)cccc2C2C=CCC12 (stereo not given),"12.6 µM [falling, partial curve]"
8,CCc1ccc2occ(CC(=O)Nc3c(C(=O)Nc4ccc(C)cc4)oc4ccccc34)c2c1,"10 µM [falling, partial curve]"
9,COC(=O)c1c(SCC(=O)Nc2cc(C)cc(C)c2)[nH]c2ccccc2c1=O,"12.6 µM [falling, partial curve]"
10,Cc1ccc(C)c(CN2C(=O)c3ccccc3S(=O)(=O)c3ccc(C(=O)N4CCCCCC4)cc32)c1,"10 µM [falling, partial curve]"
11,Cc1csc(C(C#N)C(=O)c2cc3ccccc3o2)n1 (stereo not given),"2.51 µM [falling, full curve]"
12,CC(=O)Nc1ccc(C2Sc3ccccc3NC3=C2C(=O)c2ccccc23)cc1 (stereo not given),"3.16 µM [rising, single point]"
13,Cc1oc2ncn(CC(C)C)c(=O)c2c1C(=O)NCCCN1CCCCC1,"0.398 µM [rising, full curve]"
14,COc1cccc(NC(=O)CSc2ncc(S(=O)(=O)c3ccc(C)c(C)c3)c(=O)[nH]2)c1,"15.8 µM [falling, partial curve]"
15,Cc1ccc2c(c1)N(CC(=O)N1CCN(c3nc4ccccc4s3)CC1)C(=O)C(C)O2 (stereo not given),"12.6 µM [falling, partial curve]"
16,CCc1ccc(NC(=O)CSc2nnc(Cc3cccn3C)n2-c2ccc(OC)cc2)cc1,"12.6 µM [falling, partial curve]"
17,"Cc1c2oc3c(C)ccc(C(=O)N[C@@H]4C(=O)N[C@@H](C(C)C)C(=O)N5CCC[C@@H]5C(=O)N(C)CC(=O)N(C)[C@@H](C(C)C)C(=O)O[C@H]4C)c3nc-2c(C(=O)N[C@@H]2C(=O)N[C@@H](C(C)C)C(=O)N3CCC[C@@H]3C(=O)N(C)CC(=O)N(C)[C@@H](C(C)C)C(=O)O[C@H]2C)c(N)c1=O (I: [aThr]V[dP][Sar][NMeV] / II: [aThr]V[dP][Sar][NMeV]; ester I:1-I:C, II:1-II:C; linker I:N-II:N via Actinocin(9to1))","0.0158 µM [falling, full curve]"
18,OC(C#Cc1ccccn1)c1cccs1 (stereo not given),"20 µM [rising, single point] [measured here: IkB-luc green channel]"
19,COc1ccc(NC(=O)c2oc3ccccc3c2NC(=O)c2cc3ccccc3o2)cc1,"2.51 µM [falling, partial curve]"
20,CCc1ccc(NS(=O)(=O)c2ccc3[nH]cc(C(=O)NCC4CCCO4)c(=O)c3c2)cc1 (stereo not given),"7.94 µM [falling, partial curve]"
